Source: US20170189504A1, “NOVEL PEPTIDES AND COMBINATION OF PEPTIDES FOR USE IN IMMUNOTHERAPY AGAINST VARIOUS CANCERS” (immatics biotechnologies GmbH, priority 2015, published 2017)

Tested on: HLA-A*24
Assay: Identification and relative LC-MS quantitation of HLA-A*24-presented tumor-associated peptides on tissue samples (presentation profiles, Tables 14A, 14B, 16, FIG. 1)
Set-up: species or system human; key to Presentation score GC / Presentation score NSCLC / Presentation score PCA / Presentation score GB / Presentation score HCC / Presentation score RCC: specifically presented on tumors (++++); very highly over-presented on tumors compared to a panel of normal tissues (+++); highly over-presented on tumors compared to a panel of normal tissues (++); over-presented on tumors compared to a panel of normal tissues (+)
Details: for Presentation score GC / Presentation score GB / Presentation score NSCLC / Presentation score PCA / Presentation score HCC / Presentation score RCC: HLA-A*24 peptides; for Presentation score GC: gastric cancer (N = 44) vs panel of normal tissues (N = 70); for Presentation score GB: glioblastoma (N = 18) vs panel of normal tissues (N = 70); for Presentation score NSCLC: non-small cell lung cancer (N = 91) vs panel of normal tissues (N = 70); for Presentation score PCA: prostate cancer (N = 40) vs panel of normal tissues (N = 70); for Presentation score HCC: hepatocellular carcinoma (N = 15) vs panel of normal tissues (N = 70); for number of cell lines where the peptide was found to be presented / number of cancer tissues where the peptide was found to be presented / number of normal tissues where the peptide was found to be presented: FIG. 1, A*24 positive samples; for number of cell lines where the peptide was found to be presented: cell lines include benign prostate hyperplasias; for number of cancer tissues where the peptide was found to be presented / number of normal tissues where the peptide was found to be presented: only samples with presentation shown; for Presentation score RCC: renal cell carcinoma (N = 2) vs panel of normal tissues (N = 70)
[1] = HLA-A*24-binding peptides, additional cancer entities, GB = glioblastoma, HCC = hepatocellular carcinoma, NSCLC = non-small cell lung cancer, PCA = prostate cancer
[2] = Table 14A, HLA-A*24-binding tumor-associated peptides, cancer entities on which the peptide was found presented

Substance | Presentation score GC | Presentation score GB | Peptide Presentation on cancer entities [2] | Presentation score NSCLC | also measured
184 (VFQNFPLLF; listed as Homo sapiens) [compound 184] | ++++ | ++++ | GB, GC |  | Peptide Presentation on cancer entities [1]: NSCLC
185 (IYKVGAPTI; listed as Homo sapiens) [compound 185] |  |  | NSCLC | ++++ | 
186 (IFPQFLYQF; listed as Homo sapiens) [compound 186] | ++++ |  | GC, NSCLC | ++++ | 
190 (GFFIFNERF; listed as Homo sapiens) [compound 190] |  |  | NSCLC, PCA | ++++ | Presentation score PCA: ++++
193 (RFHPTPLLL; listed as Homo sapiens) [compound 193] |  |  | NSCLC, HCC, PCA | ++++ | Presentation score HCC: ++++; Presentation score PCA: ++++
194 (EFGSLHLEFL; listed as Homo sapiens) [compound 194] |  | ++++ |  |  | 
195 (TYSVSFPMF; listed as Homo sapiens) [compound 195] |  | +++ | GB, GC, NSCLC, HCC, PCA | + | number of cell lines where the peptide was found to be presented: 3; number of cancer tissues where the peptide was found to be presented: 58; number of normal tissues where the peptide was found to be presented: 1
196 (LYIDRPLPYL; listed as Homo sapiens) [compound 196] |  |  | GC, NSCLC, HCC, PCA, RCC |  | Presentation score HCC: +; Presentation score RCC: +
197 (EYSLFPGQVVI; listed as Homo sapiens) [compound 197] | + |  | GB, GC, NSCLC, HCC, PCA |  | Presentation score PCA: +
198 (LYLDKATLI; listed as Homo sapiens) [compound 198] | ++ |  | GB, GC, NSCLC, HCC, PCA | + | Presentation score HCC: ++
202 (VYWDSAGAAHF; listed as Homo sapiens) [compound 202] |  |  | NSCLC | + | 
203 (FYSRLLQKF; listed as Homo sapiens) [compound 203] | + |  | GC, NSCLC |  | number of cell lines where the peptide was found to be presented: 1; number of cancer tissues where the peptide was found to be presented: 15
204 (TYELRYFQI; listed as Homo sapiens) [compound 204] | +++ | ++ | GB, GC, NSCLC, HCC | +++ | Presentation score HCC: +
205 (VHIPEVYLI; listed as Homo sapiens) [compound 205] |  |  | GC, NSCLC |  | 
206 (EYQENFLSF; listed as Homo sapiens) [compound 206] |  |  | NSCLC, PCA |  | 
209 (TYKDEGNDYF; listed as Homo sapiens) [compound 209] |  | +++ | GB, NSCLC | + | 
211 (YYLEVGKTLI; listed as Homo sapiens) [compound 211] | +++ |  | GC, NSCLC, HCC |  | 
213 (IFDEAEKL; listed as Homo sapiens) [compound 213] |  |  | NSCLC, PCA | ++ | Presentation score PCA: +++
215 (YFDKVVTL; listed as Homo sapiens) [compound 215] |  |  | NSCLC, HCC | ++++ | Presentation score HCC: ++++
217 (FFPPTRQMGLLF; listed as Homo sapiens) [compound 217] | ++++ |  |  |  | 
218 (YYKSTSSAF; listed as Homo sapiens) [compound 218] | + | ++ | GB, GC, NSCLC, HCC, PCA | ++ | Peptide Presentation on cancer entities [1]: SCLC
219 (EYPLVINTL; listed as Homo sapiens) [compound 219] |  | +++ | GB, GC, NSCLC, HCC, RCC | + | Presentation score HCC: +; Presentation score RCC: ++

Substance | Presentation score GC | Presentation score GB | Peptide Presentation on cancer entities [2] | Presentation score NSCLC | also measured
221 (RYSTGLAGNLL; listed as Homo sapiens) [compound 221] |  |  | GB, NSCLC, HCC, PCA |  | 
222 (TFSVSSHLF; listed as Homo sapiens) [compound 222] |  |  | GB, NSCLC, HCC | + | Presentation score HCC: +
225 (YYVYIMNHL; listed as Homo sapiens) [compound 225] |  |  | GB, NSCLC | ++ | 
226 (VYRDETGELF; listed as Homo sapiens) [compound 226] |  |  | GB, NSCLC, HCC, PCA |  | 
227 (IFLDYEAGTLSF; listed as Homo sapiens) [compound 227] | +++ |  | GC, RCC |  | Peptide Presentation on cancer entities [1]: NSCLC; Presentation score RCC: +++
267 (KYMVYPQTF; listed as Homo sapiens) [compound 267] | +++ | +++ | GB, GC, NSCLC, HCC, PCA | +++ | Presentation score HCC: +++; Presentation score PCA: +++
269 (YFIDSTNLKTHF; listed as Homo sapiens) [compound 269] | ++++ |  | GC, NSCLC, HCC | ++++ | Presentation score HCC: ++++
270 (NYYEVHKELF; listed as Homo sapiens) [compound 270] | ++++ | ++++ | GB, GC, NSCLC | ++++ | number of cancer tissues where the peptide was found to be presented: 14
271 (LYHDIFSRL; listed as Homo sapiens) [compound 271] | ++++ |  | GC, NSCLC, HCC | ++++ | Presentation score HCC: ++++
273 (TYIKPISKL; listed as Homo sapiens) [compound 273] |  | ++++ | GB, NSCLC | ++++ | 
278 (RYISDQLFTNF; listed as Homo sapiens) [compound 278] | ++ | + | GB, GC, NSCLC, HCC, PCA, RCC |  | number of cancer tissues where the peptide was found to be presented: 31; number of normal tissues where the peptide was found to be presented: 1
279 (TYIESASEL; listed as Homo sapiens) [compound 279] |  |  | NSCLC, RCC |  | Presentation score RCC: +++
280 (RYPDNLKHLYL; listed as Homo sapiens) [compound 280] |  |  | GC, NSCLC, HCC |  | Presentation score HCC: +
286 (RYPDNLKHL; listed as Homo sapiens) [compound 286] |  |  | NSCLC, HCC, PCA | + | Presentation score HCC: ++
287 (LYITEPKTI; listed as Homo sapiens) [compound 287] | + | + | GB, GC, NSCLC, HCC |  | number of cancer tissues where the peptide was found to be presented: 12
289 (KYPVEWAKF; listed as Homo sapiens) [compound 289] |  |  | PCA, RCC |  | Presentation score PCA: +++; Presentation score RCC: +++
295 (YYPGVILGF; listed as Homo sapiens) [compound 295] |  | ++++ | GB, NSCLC, RCC | ++++ | Presentation score RCC: ++++
296 (TYVDSSHTI; listed as Homo sapiens) [compound 296] |  |  | GB, GC, NSCLC, HCC, PCA |  | 
297 (PFLQASPHF; listed as Homo sapiens) [compound 297] | +++ |  | GC, NSCLC | +++ | 
298 (RYLEGTSCI; listed as Homo sapiens) [compound 298] |  | + | GB, GC, NSCLC, HCC |  | 
299 (VYFVAPAKF; listed as Homo sapiens) [compound 299] |  |  | GC, NSCLC | ++ | 
300 (AYVLRLETL; listed as Homo sapiens) [compound 300] | +++ | +++ | GB, GC, NSCLC, RCC | +++ | Presentation score RCC: +++
